Like-named read-outs stand apart in the source and are kept apart here. No constants are given. Whether binding was seen depends on the method and setting. In cells and extracts the contact can be indirect. Some entries that bind do so weakly or less than the wild type.

The chains behind the UniProt entries cited, without tags or fusion partners.
UniProt P63018: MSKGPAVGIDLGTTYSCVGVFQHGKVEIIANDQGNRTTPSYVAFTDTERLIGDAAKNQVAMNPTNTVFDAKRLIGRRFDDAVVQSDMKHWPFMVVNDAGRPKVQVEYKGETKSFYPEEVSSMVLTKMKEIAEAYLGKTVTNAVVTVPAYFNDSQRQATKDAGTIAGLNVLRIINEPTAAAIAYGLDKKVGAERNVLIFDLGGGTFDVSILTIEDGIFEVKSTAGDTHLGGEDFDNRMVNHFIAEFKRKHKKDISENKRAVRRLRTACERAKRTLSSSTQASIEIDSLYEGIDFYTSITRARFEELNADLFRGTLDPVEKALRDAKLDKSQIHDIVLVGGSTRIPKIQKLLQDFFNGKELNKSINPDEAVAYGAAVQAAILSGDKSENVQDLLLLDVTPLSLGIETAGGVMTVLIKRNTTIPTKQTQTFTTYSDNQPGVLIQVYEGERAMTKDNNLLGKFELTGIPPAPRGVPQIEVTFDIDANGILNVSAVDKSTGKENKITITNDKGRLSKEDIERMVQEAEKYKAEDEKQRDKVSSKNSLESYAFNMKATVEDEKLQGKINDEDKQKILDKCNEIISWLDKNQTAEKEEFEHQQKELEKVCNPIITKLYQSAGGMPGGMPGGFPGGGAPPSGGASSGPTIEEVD

Assay in all cases: co-IP; endogenous proteins in extracts of cultured rat cortical neurons; anti-ZAG, anti-HADHB or anti-Hsc70 antibody (2 μg) overnight at 4°C, Protein A/G agarose, five washes with lysis buffer, Western blot; for the quantitative co-IP with anti-HSC70 the neurons were treated with apoptozole (5 μmol/L) or DMSO for 24 hours
(In general: In western blotting, separated proteins are transferred to a membrane and probed.)

The target of assay [1] is T1, Zinc‐α2‐glycoprotein (rat (endogenous in primary cortical neurons)) (UniProt Q63678).
T1 sequence: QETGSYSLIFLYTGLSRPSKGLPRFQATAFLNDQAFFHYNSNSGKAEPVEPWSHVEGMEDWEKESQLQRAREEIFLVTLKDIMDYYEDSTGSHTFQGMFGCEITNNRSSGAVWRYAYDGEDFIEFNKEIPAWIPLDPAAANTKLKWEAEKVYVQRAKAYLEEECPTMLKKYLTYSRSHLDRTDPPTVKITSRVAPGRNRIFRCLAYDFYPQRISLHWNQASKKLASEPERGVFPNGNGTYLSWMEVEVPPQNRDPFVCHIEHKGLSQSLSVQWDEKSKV

The target of assay [2] is T2, four β‐subunits of long‐chain L‐3‐hydroxyacyl‐CoA dehydrogenase (rat (endogenous in primary cortical neurons)) (UniProt Q60587).
T2 sequence: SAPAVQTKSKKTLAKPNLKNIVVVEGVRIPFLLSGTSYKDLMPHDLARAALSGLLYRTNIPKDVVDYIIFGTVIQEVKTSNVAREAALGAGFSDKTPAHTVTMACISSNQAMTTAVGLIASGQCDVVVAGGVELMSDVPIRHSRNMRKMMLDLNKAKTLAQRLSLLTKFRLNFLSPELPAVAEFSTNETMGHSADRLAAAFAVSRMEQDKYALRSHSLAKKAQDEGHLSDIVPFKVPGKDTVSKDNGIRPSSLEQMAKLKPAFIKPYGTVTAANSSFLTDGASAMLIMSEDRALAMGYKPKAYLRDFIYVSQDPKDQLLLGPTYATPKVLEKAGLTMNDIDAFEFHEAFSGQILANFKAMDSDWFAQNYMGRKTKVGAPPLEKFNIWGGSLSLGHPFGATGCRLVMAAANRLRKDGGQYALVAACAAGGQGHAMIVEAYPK

Assay [3] concerns the target heat shock cognate protein 70 (rat (endogenous in primary cortical neurons)) (UniProt P63018).
Assay [4] has as its target T1, Zinc‐α2‐glycoprotein (rat (endogenous in primary cortical neurons)). This is another data set of the same source.

For the molecule “heat shock cognate protein 70 (from UniProt P63018 1-646)”, the binding entry in assay [1] was “binds”.

B1: Zinc‐α2‐glycoprotein (protein, UniProt Q63678 18-296)
chain: T1 sequence
With B1, the binding entry in assay [2] and in assay [3] was “binds” throughout.

B2: four β‐subunits of long‐chain L‐3‐hydroxyacyl‐CoA dehydrogenase (enzyme, UniProt Q60587 35-475)
chain: T2 sequence
For B2, in assay [4], the binding entry was “binds”.

The values above are taken from article PMC7299723.
